These results are taken from paper PMC10359004.

By UniProt entry, the sequences of proteins in these tests, tags left out. Where a name states a change or a piece, a line headed by the entry shows the natural chain unless it says otherwise.
UniProt Q8IPI4: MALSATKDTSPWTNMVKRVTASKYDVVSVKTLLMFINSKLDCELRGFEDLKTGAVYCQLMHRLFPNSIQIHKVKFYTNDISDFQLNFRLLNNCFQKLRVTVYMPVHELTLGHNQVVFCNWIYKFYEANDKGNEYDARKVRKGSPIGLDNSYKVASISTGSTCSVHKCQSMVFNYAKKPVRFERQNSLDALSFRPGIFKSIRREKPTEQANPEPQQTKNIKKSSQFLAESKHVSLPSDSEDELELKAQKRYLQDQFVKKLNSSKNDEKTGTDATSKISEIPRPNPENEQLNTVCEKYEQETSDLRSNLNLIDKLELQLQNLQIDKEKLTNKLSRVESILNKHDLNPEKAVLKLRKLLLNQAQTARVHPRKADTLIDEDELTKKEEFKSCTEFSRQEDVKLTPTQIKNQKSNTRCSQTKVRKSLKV

This experiment concerns the target Mst27D-EGFP (expressed in testes from the transgene g-Mst27D-EGFP) (D. melanogaster) (UniProt Q8IPI4). Nature of the experiment: affinity purification with mass spectrometry; Mst27D-EGFP purified with anti-GFP beads (uMACS) from extracts of about 9000 testes of late larvae and early pupae, four replicates; lysis buffer 20 mM Tris-HCl pH 7.5, 150 mM NaCl, 2 mM MgCl2, 0.1% NP-40, 5% glycerol, Benzonase; 4°C; controls EGFP, MNM-EGFP, SNM-EGFP, UNO-EGFP.

No constants are given. Whether binding was seen depends on the method and setting. Binding seen in cells or lysates may run through a third protein. A yes stands for co-enrichment or nearness to the bait. Other partners may have been found.

B1: RanGAP (endogenous, testis) (protein, UniProt Q9VIW3 1-596)
chain: MSTFNFASMAAQLGQEQGISFENKVLSWNTAADVQDVVDALNKQTTVHYLNLDGNTLGVEAAKAIGEGLKRHPEFRKALWKNMFTGRLISEIPEALKHLGAALIVAGAKLTVLDLSDNALGPNGMRGLEELLRSPVCYSLQELLLCNCGLGPEGGSMLSRALIDLHANANKAGFPLQLRVFIGSRNRLEDAGATEMATAFQTLKTFEEIVLEQNSIYIEGVEALAESFKHNPHLRVLNMNDNTLKSEGAEKIAEALPFLPLLREMSFGDCLIKTNGAYHFGEALERGNERLEVIDLGFNEINSDGGLVLVNAMGNKPKLRILNLDGNSFGEEGSEKIISEMSKLPTAAALQPFQHQEEEDLEDEYQADKQDADYEEEEEVHEHANDTTEEADEDSEGDEDDEEDEGDEEYSNVAEETAYVTTNAYTTKLFNDTTNSMASETFAVANKTISQKCTPEKFCLSQKPCSQEDFDSLDMDNKLEALQSIVNQFTGDNHLLLLVFTTLKCAHLSQSSKAALDLAVSLYQATFDYAIKTKQETRVLNYVLMQLRLLPCKEVFHSDYDVKNCRFALREALKQPTFANDNIKNSFKTFLEGAES
B1: the binding result is given as “binds”.
